The structures appear in SMILES notation. This is one part of the list. These are further read-outs of the screen, such as a control signal, another cell line or another target. No call is given for them. The list favours compounds with an active or inconclusive main result. Potencies come from curve fits of mixed quality, noted in brackets.

The assay in a line: qHTS Assay for Lipid Storage Modulators in Drosophila S3 Cells.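 As to cell number change: cells counted by Cell Tracker Red CMTPX staining in the red channel.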 The settings on record: BODIPY lipid droplet fluorescence, 18-24 h; for cell number change: measured here: cell count max response, cells fed with added oleic acid. In a few lines: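 Drosophila S3 cells got compounds at several concentrations plus oleic acid (400 uM solution). Laser-scanning cytometry with 488 nm excitation read lipid droplets at 500-530 nm and cells at 575-640 nm. Percent activity was relative to 20 uM Triacsin C.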
Background: In qHTS, concentration-response curves come from the screen itself.

The mark [1] stands for this setting: measured here: lipid fluorescence (Fed channel) AC50, cells fed with added oleic acid.
Setting [2] is: measured here: cell number channel AC50, cells fed with added oleic acid.

The term AC50 denotes the concentration at which the activity in the assay is half-maximal. Lower therefore signals greater potency. Take `CC(C)/C(=N/Nc1ccccc1[N+](=O)[O-])c1ccccc1`: under setting [1], the AC50 is 2.59 µM [falling, partial curve].
With `NC(=O)CC(NC(=O)c1ccc(Br)cc1)c1ccc(NCc2ccc(F)c(F)c2)c([N+](=O)[O-])c1` (configuration not stated), the cell number change stood at 23.9%. Moreover, the half-maximal activity concentration (AC50) under setting [1] is 13 µM [rising, partial curve, poor fit].
`COc1ccccc1N(C(=O)CN1C(=O)c2ccccc2S1(=O)=O)C(C(=O)NCC1CCCO1)c1ccc(F)cc1` (configuration not stated): the cell number change is -4.46%. Besides, the AC50 under setting [1] was 29.1 µM [falling, single point].
In the case of `Cc1cc2cc(CCNC(=O)CC(C)C)c(=O)[nH]c2cc1C`, the cell number change is 3.19%. Further, under setting [1], the AC50 was 18.4 µM [rising, single point].
In the case of `Cc1cccc(C)c1NC(=O)CNC(=O)c1ccc(N2CCCC2)c([N+](=O)[O-])c1`, the cell number change is -21.4%. Under setting [2], the AC50 was 0.146 µM [falling, full curve, poor fit]. The AC50 under setting [1] is 0.231 µM [falling, full curve].
For the molecule `Cc1ccccc1COC(=O)CNC(=O)c1sc2ccccc2c1Cl`, the cell number change is -67%. Moreover, under setting [2], the AC50 was 29.1 µM [falling, single point].
Turning to `Fc1ccc(-n2cc(CNCCc3ccncc3)c(-c3ccccc3Cl)n2)cc1`, the cell number change was -22.3%. The AC50 under setting [1] is 0.116 µM [falling, full curve, poor fit].
With `Cc1cccn2c(=O)c(/C=C(\C#N)C(=O)NC3CCS(=O)(=O)C3)c(N3CCC(C)CC3)nc12` (configuration not stated), the cell number change was -23.8%. In addition, the AC50 under setting [2] was 0.82 µM [rising, partial curve, poor fit]. Further, the AC50 under setting [1] is 1.16 µM [rising, full curve, poor fit].
Take `Cc1ccc(C)c(NC(=O)C2CCCN(c3cnccn3)C2)c1` (configuration not stated): the cell number change amounted to 10.6%. Besides, the AC50 under setting [1] is 6.51 µM [rising, single point].
As to `CCc1ccccc1S(=O)(=O)Cc1ccc(C(=O)NCc2cccs2)o1`, the cell number change amounted to 22%. The AC50 under setting [2] is 0.00461 µM [rising, full curve, poor fit]. Besides, the AC50 under setting [1] was 0.00517 µM [rising, full curve, poor fit].
In the case of `S=C(NCCCc1ccccc1)Nc1ccc(Br)cc1`, the cell number change is 18.5%. For the same molecule, under setting [1], the AC50 is 29.1 µM [falling, single point].
On to `O=C(CCN1CCCC1=O)NC1CCCc2c1cnn2-c1ccc(F)cc1F` (configuration not stated), for which the AC50 under setting [1] is 6.51 µM [rising, single point].
For the molecule `Cn1cnc2cc(NCc3ccc(Cl)cc3)ccc21`, the cell number change was -41.7%. Also, the AC50 under setting [2] is 4.61 µM [falling, partial curve, poor fit]. Besides, the AC50 under setting [1] is 4.11 µM [falling, full curve].
`CSc1ncc(CN2CCC(C(=O)Nc3cccc(-c4cscn4)c3)CC2)cn1`: the cell number change was -20.2%. Moreover, the AC50 under setting [1] is 29.1 µM [falling, partial curve, poor fit].
Take `CCOC(=O)c1nn(-c2ccc(C)cc2)c(C)c1C(C)=O`: the cell number change is 47.8%. Also, the AC50 under setting [2] is 16.4 µM [rising, partial curve, poor fit]. The AC50 under setting [1] was 1.16 µM [rising, full curve].
For the molecule `CCc1ccc2[nH]c(=O)c(CN(Cc3nnnn3C3CCCC3)C3CCCCC3)cc2c1`, the cell number change is -16%.
For `O=S(=O)(/C(=C/c1ccc(C(F)(F)F)cc1)c1nc2ccccc2[nH]1)c1ccccc1`, the cell number change was -32.6%. For the same molecule, the AC50 under setting [2] is 18.4 µM [falling, single point]. Further, the AC50 under setting [1] is 23.1 µM [falling, partial curve].
Consider `Cc1cccc(NC(=O)/C(C#N)=C\c2cn(CC(=O)O)c3ccccc23)c1`, for which the cell number change is -2.55%. Also, under setting [1], the AC50 is 16.4 µM [falling, single point].
`CCCS(=O)(=O)N1CCCC(C(=O)Nc2ccc3c(c2)CCC3)C1` (configuration not stated): the cell number change was 20.6%. The AC50 under setting [1] was 20.6 µM [rising, single point].
Turning to `CCOc1ccc(NC(=O)CCC(=O)Nc2nnc(CC)s2)cc1`, the cell number change was 7.55%. Further, the AC50 under setting [1] is 29.1 µM [falling, single point].
Consider `COc1ccc(Cl)cc1C(=O)NCCN1CCOCC1`, for which the cell number change was -4.21%. The AC50 under setting [1] is 32.6 µM [rising, single point].
For `Cc1ccc2ncccc2c1`, the cell number change is 13.6%. Also, under setting [1], the AC50 was 3.66 µM [rising, partial curve].
In the case of `Cc1ccc(S(=O)(=O)N[C@@H](Cc2ccccc2)C(=O)N2CCC(C(=O)N[C@@H](CC(C)C)C(=O)O)CC2)cc1`, the cell number change was 12%. Also, the AC50 under setting [1] was 13 µM [rising, partial curve, poor fit].
Regarding `CCC(C)n1cnc2c(c1=O)c1nc3ccccc3nc1n2-c1ccc2c(c1)OCCO2` (configuration not stated), the cell number change amounted to 8.78%.
Consider `O=C(C[n+]1ccc(C(=O)NCc2ccccc2)cc1)c1ccc(Cl)cc1`, for which the cell number change is 5.48%. The AC50 under setting [1] was 7.31 µM [rising, full curve].
As to `CCOC(=O)C1CCN(c2c(C(=O)c3ccccc3)cnc3ccc(CC)cc23)CC1`, the cell number change stood at 55%. In addition, the AC50 under setting [2] is 20.6 µM [rising, partial curve].
As to `CC(C)OC(=O)c1c(F)c(F)c(N2CCOCC2)c(F)c1F`, the cell number change was -34.8%. Besides, the AC50 under setting [2] was 29.1 µM [falling, single point]. In addition, the AC50 under setting [1] was 0.92 µM [falling, full curve, poor fit].
In the case of `COc1ccccc1CNC(=O)C(=O)Nc1ccc(C(=O)N2CCC(C)CC2)cc1`, the cell number change is 22.2%. Also, the AC50 under setting [1] was 29.1 µM [rising, single point].
On to `COc1ccc(-c2sc3cc(OC)c(OC)cc3c2C#CCCO)cc1`, for which the cell number change was -31.8%. Besides, the half-maximal activity concentration (AC50) under setting [2] was 25.9 µM [falling, single point]. The AC50 under setting [1] was 18.4 µM [falling, partial curve, poor fit].
For the molecule `CCOC(=O)C1CCCCN1Cc1cccc(C(F)(F)F)c1` (configuration not stated), the cell number change came to 16.6%. Also, the AC50 under setting [1] was 0.651 µM [falling, single point].
On to `N#Cc1cc2c(nc1SCC(=O)NCc1ccc3c(c1)OCO3)CCCCC2`, for which the cell number change was 17.3%. Besides, the AC50 under setting [2] is 0.164 µM [rising, full curve, poor fit]. Besides, under setting [1], the AC50 was 0.517 µM [rising, partial curve].
On to `COc1ccccc1NC(=O)CN1CCN(C(=O)c2ccco2)CC1`, for which the cell number change is -9.67%. Also, under setting [2], the AC50 was 3.26 µM [rising, single point]. Also, the AC50 under setting [1] was 2.91 µM [rising, single point].
Consider `COC(=O)C1CCN(C(=O)COC(=O)c2cccc(NS(=O)(=O)c3ccccc3)c2)CC1`, for which the AC50 under setting [2] is 0.259 µM [rising, partial curve, poor fit].
`CCC(C)NC(=O)Cn1cnc2sc(C)c(S(=O)(=O)N3CCN(c4ccccc4OC)CC3)c2c1=O` (configuration not stated): the cell number change is 3.6%. Besides, the AC50 under setting [1] was 0.58 µM [rising, single point].
For `CC1=C(C(N)=O)C(c2ccccc2)n2nc(-c3cccc(C)c3)nc2N1` (configuration not stated), the cell number change was -3.87%. Besides, under setting [1], the AC50 was 0.13 µM [rising, full curve].
Regarding `Cc1ccc(O)c(-c2cc(C(=O)Nc3ccc(S(=O)(=O)N4CC(C)OC(C)C4)cc3)[nH]n2)c1` (configuration not stated), the cell number change is -83.4%. In addition, the AC50 under setting [2] is 29.1 µM [falling, single point].
For the molecule `COc1ccc(CC(CC(=O)O)C(=O)Nc2ccccc2)cc1` (configuration not stated), the cell number change worked out at 7.11%. Further, the AC50 under setting [1] is 29.1 µM [rising, single point].
Regarding `Cc1ccc(-n2ncc3c2CCCC3NC(=O)c2ccoc2)cc1C` (configuration not stated), the cell number change is -64.6%. For the same molecule, the AC50 under setting [2] was 0.0794 µM [falling, full curve, poor fit]. The AC50 under setting [1] was 0.0891 µM [falling, full curve].
Turning to `CCCNC(=O)C(Cc1cccc(Cl)c1)NC(=O)c1ccc(C#N)cc1` (configuration not stated), the cell number change was -2.05%.
Take `Cc1cccc(N2CCN(S(=O)(=O)c3c(C)nc4scc(C)n4c3=O)CC2C)c1` (configuration not stated): the cell number change is -34.9%. Moreover, the half-maximal activity concentration (AC50) under setting [2] was 32.6 µM [falling, single point].
For the molecule `CSc1ccc(/C=C/C(=O)OCC(=O)N2CCN(S(=O)(=O)c3ccc(C)cc3C)CC2)cc1`, the cell number change was -17%. Further, under setting [2], the AC50 is 0.164 µM [falling, full curve, poor fit]. In addition, the AC50 under setting [1] was 0.0731 µM [falling, full curve, poor fit].
`O=C(COC(=O)Cn1cnc2ccccc21)NCCc1ccc(Cl)cc1`: the AC50 under setting [1] is 6.51 µM [falling, full curve].
On to `O=C(CN(Cc1ccc(F)cc1)C(=O)c1csnn1)NCc1ccc2c(c1)OCO2`, for which the cell number change was 30.9%. Besides, under setting [2], the concentration at half-maximal activity (AC50) was 32.6 µM [rising, single point].
Turning to `O=C(NNC(=O)C12CC3CC(CC(C3)C1)C2)c1cccc(O)c1`, the cell number change worked out at 14.5%. The AC50 under setting [1] was 6.51 µM [rising, single point].
For the molecule `CCOC(=O)N1CCN(C(=O)c2ccccc2NC(=O)c2ccc(Br)cc2)CC1`, the cell number change was -4.72%. In addition, the AC50 under setting [1] is 0.259 µM [falling, full curve, poor fit].
In the case of `CC(C)(C)C(=O)N1CCN(c2ccc([N+](=O)[O-])c(-n3nc(-c4ccccc4)c4ccccc4c3=O)c2)CC1`, the cell number change turned out to be 24%. Further, the AC50 under setting [1] is 10.3 µM [rising, partial curve, poor fit].
For `N#CCCN1CCN(Cc2ccccc2)CCC1=O`, the cell number change came to 30.5%. Moreover, the AC50 under setting [1] was 6.51 µM [rising, partial curve].
In the case of `Cc1cccc(NC(=O)CSCC(=O)N2CCCc3ccccc32)c1`, the AC50 under setting [2] was 0.184 µM [rising, full curve, poor fit] and the AC50 under setting [1] is 2.31 µM [falling, partial curve].
As to `CC1CCN(S(=O)(=O)c2ccc3[nH]c(=O)cc(C(=O)O)c3c2)CC1`, the cell number change was -181%. Further, under setting [2], the AC50 was 25.9 µM [falling, partial curve]. The AC50 under setting [1] is 0.291 µM [falling, full curve, poor fit].
Take `COc1ccc(CN2CCN(C(=O)c3ccc(S(=O)(=O)N4CCCCCC4)cc3)CC2)cc1F`: the cell number change turned out to be 55.4%. For the same molecule, the AC50 under setting [2] is 16.4 µM [rising, single point].
Consider `Brc1ccccc1C1Nc2cccc3cccc(c23)N1`, for which the cell number change was -10.4%. Besides, under setting [1], the AC50 is 29.1 µM [falling, single point].
Consider `CCN(CC)c1ccc(NC(=O)c2ccc(=O)[nH]c2)cc1S(=O)(=O)Nc1ccc(OC)cc1`, for which the AC50 under setting [1] is 6.51 µM [rising, single point].
Consider `COC(=O)c1ccc(C(=O)OC)c(NC(=O)CN2CCN(c3ccccc3)CC2)c1`, for which the cell number change turned out to be 0.503%. For the same molecule, the AC50 under setting [2] is 0.411 µM [rising, single point]. The AC50 under setting [1] is 23.1 µM [rising, partial curve].

Values taken from PubChem BioAssay AID2685 (National Center for Advancing Translational Sciences (NCATS), 2010).
